Measurements as given in PubChem BioAssay AID1439 (NMMLSC, 2008).
Out of some 220,000 compounds screened, about 770 (0.35%) were called active. Inconclusive means that the source gave no clear call. Such entries were picked first, then a sample of the others. No stated cut-off is given here; in the data, active means binding response below about 49% or above about 150%; inconclusive means no clear call, values can overlap the other calls; inactive means in between.

The chains behind the UniProt entries cited, without tags or fusion partners.
UniProt P09471, whole entry, looked up: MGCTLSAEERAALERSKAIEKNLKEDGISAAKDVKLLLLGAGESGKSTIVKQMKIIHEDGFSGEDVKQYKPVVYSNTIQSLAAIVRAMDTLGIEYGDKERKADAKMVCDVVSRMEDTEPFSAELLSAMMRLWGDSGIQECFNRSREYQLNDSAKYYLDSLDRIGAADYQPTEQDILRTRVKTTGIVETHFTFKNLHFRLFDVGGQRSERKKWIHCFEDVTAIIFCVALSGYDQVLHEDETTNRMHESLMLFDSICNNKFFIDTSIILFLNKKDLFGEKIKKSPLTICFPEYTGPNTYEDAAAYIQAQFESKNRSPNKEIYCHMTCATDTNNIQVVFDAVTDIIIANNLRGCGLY

Biological target: Guanine nucleotide-binding protein G(o) subunit alpha (Homo sapiens) (UniProt P09471)
Test: RGS7-Galphao binding modulators, primary screen, biochemical, multiplexed bead flow cytometry (AID 1439);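 further: fluorescent Galphao held in activated GDP-AlF4 state binding bead-coupled RGS7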
Conditions: at 10 µM, actives lie on both sides

SMILES	binding response (% of control)
CCN(CC)S(=O)(=O)c1ccc(N2CCCC2)c(NC(=O)CC(C)(C)C)c1	inconclusive: -222%
Cc1cccn2c(=O)c3cc(C(=O)NC(C)c4ccccc4)c(=N)n(CCCn4ccnc4)c3nc12 (configuration not stated)	inconclusive: 36.2%
Cc1csc2c(N3CCCCC3)ncnc12	inconclusive: 118%
COc1ccc(NC(=O)/C=C/C(=O)O)c(OC)c1	inconclusive: 95.5%
N#CC1=C(N)NC(=S)C(C(N)=O)C1c1ccc([N+](=O)[O-])cc1 (configuration not stated)	inconclusive: 96.7%
CC(=O)N1N=C(c2ccc(Cl)cc2)OC12CCCC2	inconclusive: 93.8%
CCN(CC)S(=O)(=O)c1ccc(C(=O)Nc2nnc(NC(=S)Nc3ccccc3)s2)cc1	inconclusive: 196%
O=C(NCCO)c1ccc2c3n(nc2c1)-c1ccccc1CO3	inconclusive: 98.6%
S=c1[nH]nc(CN2CCCCC2)n1-c1ccc(Cl)cc1	inconclusive: 116%
CC(C(=O)O)n1ncc2ccccc2c1=O (configuration not stated)	inconclusive: 96.6%
CSc1ncccc1C(=O)NC(C)C1CC2CCC1C2 (configuration not stated)	inactive: 99.5%
NC(=O)CC(NC(=O)Cc1cccc2ccccc12)c1ccc(NCc2ccc(F)c(F)c2)c([N+](=O)[O-])c1 (configuration not stated)	inconclusive: 113%
O=C(COC(=O)CSc1ccc2ccccc2c1Br)NC1CC1	inactive: 99.6%
S=C(Nc1cc(Cl)ccc1Cl)Nn1cnnc1	inconclusive: 80.3%
CCN1CCN(S(=O)(=O)c2cc(C(=O)O)ccc2Cl)CC1	inconclusive: 131%
COc1ccc(C2C3=C(CC(C)(C)CC3=O)N(CCN3CCOCC3)C3=C2C(=O)CC(C)(C)C3)cc1	inconclusive: -381%
Cc1ccc(-n2nnnc2SCC#N)cc1	inconclusive: 89%
O=C1NC(=O)C(Cc2ccccc2)(c2cccnc2)N1 (configuration not stated)	inconclusive: 118%
C=CCc1c(C)nc2c(C)cccc2c1SC(=N)N	inconclusive: -10%
Nc1ccc(OC(=O)Nc2ccc(O)cc2)cc1	inconclusive: 91.6%
CCC(C)OC1OC(CO)C(O)C(O)C1NC(C)=O (configuration not stated)	inactive: 102%
COc1ccc(CCNC(=O)CCN2C(=O)c3cccc4cccc(c34)C2=O)cc1OC	inconclusive: 113%
Cc1ccc(SC[C@H](Cc2ccccc2)N2CCN(CCc3ccccc3)CCC2=O)cc1	inconclusive: 112%

SMILES	binding response (% of control)
O=C(O)COc1ccc(/C=C/c2nc3ccc([N+](=O)[O-])cc3s2)cc1	inconclusive: 86.5%
Cc1ccc2nc(-c3cccnc3)cc(C(=O)Nc3ccc(F)cc3C)c2c1	inconclusive: 75.6%
CCCCSCCCNC(=S)Nc1ccccc1C	inactive: 102%
O=c1[nH]c(SCc2cccc(Cl)c2)nc2ccccc12	inconclusive: 121%
CN=C(C)/C(C(=O)OC)=C(/O)c1ccc(Cl)cc1Cl	inconclusive: 77.2%
CCCn1c(=S)[nH]c2ccccc2c1=O	inconclusive: 111%
COc1ccc(C2C3=C(CCCC3=O)Nc3n[nH]c(C)c32)cc1OC (configuration not stated)	inconclusive: 135%
CCOC(=O)NC(CC(=O)O)c1ccc(OC)c(OC)c1 (configuration not stated)	inactive: 102%
COc1ccc(CNC(=O)c2c(F)c(F)c(F)c(F)c2F)cc1	inactive: 51.2%
CCCOc1ccc(C(=O)c2ccccc2C(=O)O)cc1OCCC	inconclusive: 117%
CCOC(=O)CSc1nc(=O)n2ccccc2n1	inconclusive: 216%
O=C(Nc1ccccc1N1CCCCC1)c1ccc(Cl)c([N+](=O)[O-])c1	inconclusive: 99.9%
Cc1c(NS(=O)(=O)c2ccc(NCC3CCCO3)c([N+](=O)[O-])c2)c(=O)n(-c2ccccc2)n1C (configuration not stated)	inconclusive: 94.8%
CCOC(=O)C(=CNc1cc(C)ccc1-n1cccc1)C(=O)OCC	inconclusive: 103%
CC(OC(=O)Cc1n[nH]c(=O)c2ccccc12)C(=O)Nc1cccc([N+](=O)[O-])c1 (configuration not stated)	inconclusive: 86.8%
CC(NC(=O)OC(C)(C)C)C(=O)NC(CCC(=O)OCc1ccccc1)C(N)=O (configuration not stated)	inactive: 103%
COC(=O)C1CCN(CC(=O)Nc2ccc(OC)c(Cl)c2)CC1	inactive: 99.5%
CCCC(=O)N/C(N)=N/c1nc(C)c2cc(C)ccc2n1	inconclusive: 87.9%
O=C(NCC1CCCO1)C(c1cccs1)N(Cc1ccccc1Cl)C(=O)c1ccc(-c2ccccc2)[nH]1 (configuration not stated)	inactive: 86.8%
Cc1[nH]c2ccccc2c1SCc1ccccc1	inactive: 96.7%
NC(=O)CC(NC(=O)Cc1cccc2ccccc12)c1ccc(NCCc2ccc(F)cc2)c([N+](=O)[O-])c1 (configuration not stated)	inconclusive: 115%
O=[N+]([O-])c1cc(Cl)ccc1NCCNS(=O)(=O)c1ccccc1	inactive: 99.6%
NC(=O)c1ccc(OCC(F)(F)F)nc1	inconclusive: 56.5%

SMILES	binding response (% of control)
Cc1[nH]ccc(=O)c1OCc1c(F)cccc1Cl	inconclusive: 131%
Cc1ccc(F)cc1NC(=O)CSc1ncccn1	inconclusive: 104%
NNC(=O)c1cccnc1Oc1ccccc1	inconclusive: 100%
CC(C)(C)c1cc(-c2n[nH]c(=S)n2-c2ccccc2F)n[nH]1	inconclusive: 120%
CCc1ccc(-n2c(SCC(=O)c3ccc4c(c3)NC(=O)CO4)nc3ccccc3c2=O)cc1	inconclusive: 99.9%
Cc1cc(-c2ccn[nH]2)c(C)s1	inactive: 98%
O=C(c1ccc(-c2ccccc2)c(F)c1)C1CCCN(CCCn2cccn2)C1 (configuration not stated)	inconclusive: -35.5%
CCCN1C(=O)/C(=C/c2ccc(N3CCCC3)c(C)c2)NC1=S	inactive: 108%
CCCCNc1c(N)n(CCC)c(=O)[nH]c1=O	inconclusive: 107%
O=C(N/N=C/C=C/c1ccccc1)c1cccnc1	inconclusive: 122%
CCCCn1c(-c2cccs2)nc2oc3ccccc3c(=O)c2c1=O	inconclusive: 122%
CCn1c(C)nc2cc(C(=O)NNC(=S)NC(=O)c3ccc(OC)cc3)ccc21	inconclusive: 105%
Cn1c(CSCc2ccc(Cl)cc2Cl)n[nH]c1=S	inconclusive: 88.2%
Cc1[nH]c2ccccc2c1C(=O)CSc1nc2ncc(Cl)cc2[nH]1	inconclusive: 126%
Cc1nc2ccccc2c(=O)n1/N=C/c1ccccc1	inactive: 99.2%
O=[N+]([O-])c1ccc(-c2ncc(-c3ccc(Br)cc3)o2)cc1	inconclusive: 119%
CC(NC(=O)COC(=O)c1ccc2ccccc2n1)C1CC2CCC1C2 (configuration not stated)	inconclusive: 116%
COc1ccccc1CNC(=O)/C=C/c1ccc(S(=O)(=O)N2CCOCC2)cc1	inactive: 101%
CCOC(=O)N1CCC(NC(=O)c2cc(S(=O)(=O)NCCc3ccccc3)ccc2F)CC1	inactive: 114%
Cc1cccc(N=c2c([N+](=O)[O-])nn(-c3ccc(Cl)cc3)n2O)c1	inconclusive: 104%
COCCN1C(=O)CC(NNC(=O)c2ccc(S(=O)(=O)N3CCCC3)cc2)C1=O (configuration not stated)	inconclusive: 105%
NC1=NC(=Nc2ccc(S(N)(=O)=O)cc2)c2ccccc21	inconclusive: 124%
O=C1/C(=C/c2cccs2)SC(=S)N1NS(=O)(=O)c1ccccc1	inconclusive: 116%

SMILES	binding response (% of control)
CCOC1CC(C)(C)NC(=S)N1 (configuration not stated)	inactive: 103%
CC1CC(C)CN(CCCNC(=O)c2ccc3c(SCC(=O)O)c4c(nc3c2)CCC4)C1 (configuration not stated)	inconclusive: 119%
O=C(COC(=O)c1ccc([N+](=O)[O-])s1)Nc1cccc(S(=O)(=O)NC2=NCCCCC2)c1	inconclusive: 102%
Cc1ccc(C)c(NC(=O)c2ccccc2NC(=O)C2CCCO2)c1 (configuration not stated)	inconclusive: 80.8%
Nc1nnc(SCC(=O)Nc2cccc(S(N)(=O)=O)c2)s1	inconclusive: 110%
CC(C)(C)c1ccc(SCCc2cccnc2)cc1	inconclusive: 117%
O=C(Cc1ccc([N+](=O)[O-])cc1)Nc1nccs1	inconclusive: 111%
CCN1CCN(C(=O)C(C)Nc2ccc(OC)cc2OC)CC1 (configuration not stated)	inconclusive: 87.8%
Cc1nc(-c2ccc(S(=O)(=O)N3CCN(C4c5ccccc5-c5ccccc54)CC3)s2)cs1	inconclusive: 90.3%
Cn1nccc1NC(=O)Nc1ccc(Cl)cc1	inconclusive: 89%
CC(C)(C)NC(=O)NC(=O)CN1CCN(c2cccc(Cl)c2)CC1	inconclusive: 97.3%
COc1cc(CC(=O)Nc2ccccc2N2CCCCC2)cc(OC)c1OC	inactive: 101%
CCC1=C2CC[C@H]3C(=O)N(CC)C(=O)[C@H]3[C@H]2[C@@]2(Cc3ccccc3)C(=NCc3ccccc3)OC(=O)N2C1=O	inconclusive: 89.7%
Cc1ccc(/C=N/NC(=O)Cn2nnc(N)n2)cc1	inconclusive: 112%
Cc1cc(C)cc(-n2cc(C(=O)O)c(=O)cc2C)c1	inactive: 102%
O=C(c1ccc(S(=O)(=O)NCc2ccco2)cc1)N1CCN(Cc2ccc3c(c2)OCO3)CC1	inactive: 120%
CCCCCSc1nnc(N)s1	inconclusive: 116%
O=C(Nc1ccccc1-c1ccccc1)NC1CCN(CC(=O)N2CCOCC2)CC1	inactive: 100%
COC(=O)c1scc(S(=O)(=O)C(C)C)c1N/N=C(\C#N)C(=O)c1ccc(Cl)cc1	inconclusive: 81.3%
CCn1c(SCC(=O)Nc2c(C)n(C)n(-c3ccccc3)c2=O)nc2c1c(=O)n(C)c(=O)n2C	inactive: 106%
Fc1ccc(F)c(C2=NNC(=NCC3CCCO3)SC2)c1 (configuration not stated)	inconclusive: 92.8%
O=C(CCc1ccc(O)cc1)c1c(O)cc(O)cc1O	inconclusive: 98.9%
Cc1ccc(NC(=O)N[C@@H](CC(C)C)C(=O)O)c(C)c1	inconclusive: 114%

Four successive compounds already listed:
SMILES	binding response (% of control)
CCN1CCN(C(=O)C(C)Nc2ccc(OC)cc2OC)CC1 (configuration not stated)	inconclusive: 87.8%
Cc1nc(-c2ccc(S(=O)(=O)N3CCN(C4c5ccccc5-c5ccccc54)CC3)s2)cs1	inconclusive: 90.3%
Cn1nccc1NC(=O)Nc1ccc(Cl)cc1	inconclusive: 89%
CC(C)(C)NC(=O)NC(=O)CN1CCN(c2cccc(Cl)c2)CC1	inconclusive: 97.3%
